These are yes or no findings as the source states them, for the method shown. Binding seen in cells or lysates may run through a third protein. Some results given as binding are weak or reduced against the parent protein; the word gives no strength.

Amino acid sequences for entries named in this document (tags omitted).
UniProt Q9H2D6: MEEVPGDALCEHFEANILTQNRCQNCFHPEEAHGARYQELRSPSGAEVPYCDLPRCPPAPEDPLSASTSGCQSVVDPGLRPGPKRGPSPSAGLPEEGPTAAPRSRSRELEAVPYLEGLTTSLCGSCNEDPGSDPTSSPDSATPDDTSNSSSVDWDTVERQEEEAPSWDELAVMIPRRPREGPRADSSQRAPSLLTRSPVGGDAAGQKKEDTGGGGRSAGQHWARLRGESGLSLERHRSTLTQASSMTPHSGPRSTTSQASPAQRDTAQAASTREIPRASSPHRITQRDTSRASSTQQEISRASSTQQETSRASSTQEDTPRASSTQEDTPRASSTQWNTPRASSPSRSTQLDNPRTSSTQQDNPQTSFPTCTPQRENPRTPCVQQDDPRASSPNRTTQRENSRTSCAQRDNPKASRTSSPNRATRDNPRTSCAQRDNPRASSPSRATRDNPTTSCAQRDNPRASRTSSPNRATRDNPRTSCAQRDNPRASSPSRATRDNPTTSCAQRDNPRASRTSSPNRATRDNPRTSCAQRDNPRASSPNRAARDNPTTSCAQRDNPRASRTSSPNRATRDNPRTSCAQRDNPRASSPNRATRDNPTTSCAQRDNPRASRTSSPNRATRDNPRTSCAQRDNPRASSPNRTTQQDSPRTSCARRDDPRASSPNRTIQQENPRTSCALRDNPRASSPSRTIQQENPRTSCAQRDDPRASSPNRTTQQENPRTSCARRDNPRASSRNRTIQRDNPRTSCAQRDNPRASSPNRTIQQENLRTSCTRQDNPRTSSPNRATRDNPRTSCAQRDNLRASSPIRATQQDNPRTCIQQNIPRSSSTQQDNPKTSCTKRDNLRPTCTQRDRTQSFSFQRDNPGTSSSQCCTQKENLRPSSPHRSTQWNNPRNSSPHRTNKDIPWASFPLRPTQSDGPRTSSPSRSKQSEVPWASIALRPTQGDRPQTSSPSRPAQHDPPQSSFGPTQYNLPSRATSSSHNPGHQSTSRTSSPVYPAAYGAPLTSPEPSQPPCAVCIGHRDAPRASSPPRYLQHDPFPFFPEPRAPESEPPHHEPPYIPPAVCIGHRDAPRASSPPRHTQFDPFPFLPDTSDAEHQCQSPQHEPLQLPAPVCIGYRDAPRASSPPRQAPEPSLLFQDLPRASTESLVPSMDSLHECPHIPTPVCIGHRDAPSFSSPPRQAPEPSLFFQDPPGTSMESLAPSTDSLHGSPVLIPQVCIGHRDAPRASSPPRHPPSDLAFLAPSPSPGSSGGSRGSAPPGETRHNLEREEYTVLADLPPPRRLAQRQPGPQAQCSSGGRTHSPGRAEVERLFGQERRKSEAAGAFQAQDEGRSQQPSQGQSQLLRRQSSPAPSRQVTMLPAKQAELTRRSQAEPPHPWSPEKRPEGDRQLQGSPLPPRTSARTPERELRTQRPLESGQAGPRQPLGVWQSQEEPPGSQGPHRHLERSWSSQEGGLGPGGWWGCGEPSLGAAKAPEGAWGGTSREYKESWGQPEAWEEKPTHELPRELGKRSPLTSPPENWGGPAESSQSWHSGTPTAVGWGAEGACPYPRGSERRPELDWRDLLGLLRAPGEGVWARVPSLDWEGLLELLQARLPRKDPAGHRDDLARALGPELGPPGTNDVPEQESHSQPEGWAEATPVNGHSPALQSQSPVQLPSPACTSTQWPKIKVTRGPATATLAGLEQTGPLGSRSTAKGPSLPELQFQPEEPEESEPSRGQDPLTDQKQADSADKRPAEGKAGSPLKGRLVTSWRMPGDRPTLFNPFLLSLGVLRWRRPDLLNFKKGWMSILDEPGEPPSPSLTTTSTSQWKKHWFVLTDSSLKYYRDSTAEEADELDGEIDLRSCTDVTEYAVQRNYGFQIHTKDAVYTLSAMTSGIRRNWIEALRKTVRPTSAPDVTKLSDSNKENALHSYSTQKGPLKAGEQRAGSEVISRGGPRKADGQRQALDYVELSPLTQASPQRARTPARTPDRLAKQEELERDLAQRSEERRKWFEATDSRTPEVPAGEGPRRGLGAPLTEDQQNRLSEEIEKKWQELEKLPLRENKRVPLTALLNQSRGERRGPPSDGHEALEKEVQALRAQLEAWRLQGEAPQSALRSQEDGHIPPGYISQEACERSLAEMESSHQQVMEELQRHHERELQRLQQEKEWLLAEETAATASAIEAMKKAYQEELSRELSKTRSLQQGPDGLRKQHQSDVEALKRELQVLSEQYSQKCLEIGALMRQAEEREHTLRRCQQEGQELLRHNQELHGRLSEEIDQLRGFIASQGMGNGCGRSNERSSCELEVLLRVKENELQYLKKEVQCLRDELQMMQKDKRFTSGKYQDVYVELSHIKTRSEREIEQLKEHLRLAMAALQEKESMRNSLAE

The target in this assay is T1, Huntingtin-interacting protein 1 (human) (human (endogenous in RA FLS)) (UniProt O00291).
T1 sequence: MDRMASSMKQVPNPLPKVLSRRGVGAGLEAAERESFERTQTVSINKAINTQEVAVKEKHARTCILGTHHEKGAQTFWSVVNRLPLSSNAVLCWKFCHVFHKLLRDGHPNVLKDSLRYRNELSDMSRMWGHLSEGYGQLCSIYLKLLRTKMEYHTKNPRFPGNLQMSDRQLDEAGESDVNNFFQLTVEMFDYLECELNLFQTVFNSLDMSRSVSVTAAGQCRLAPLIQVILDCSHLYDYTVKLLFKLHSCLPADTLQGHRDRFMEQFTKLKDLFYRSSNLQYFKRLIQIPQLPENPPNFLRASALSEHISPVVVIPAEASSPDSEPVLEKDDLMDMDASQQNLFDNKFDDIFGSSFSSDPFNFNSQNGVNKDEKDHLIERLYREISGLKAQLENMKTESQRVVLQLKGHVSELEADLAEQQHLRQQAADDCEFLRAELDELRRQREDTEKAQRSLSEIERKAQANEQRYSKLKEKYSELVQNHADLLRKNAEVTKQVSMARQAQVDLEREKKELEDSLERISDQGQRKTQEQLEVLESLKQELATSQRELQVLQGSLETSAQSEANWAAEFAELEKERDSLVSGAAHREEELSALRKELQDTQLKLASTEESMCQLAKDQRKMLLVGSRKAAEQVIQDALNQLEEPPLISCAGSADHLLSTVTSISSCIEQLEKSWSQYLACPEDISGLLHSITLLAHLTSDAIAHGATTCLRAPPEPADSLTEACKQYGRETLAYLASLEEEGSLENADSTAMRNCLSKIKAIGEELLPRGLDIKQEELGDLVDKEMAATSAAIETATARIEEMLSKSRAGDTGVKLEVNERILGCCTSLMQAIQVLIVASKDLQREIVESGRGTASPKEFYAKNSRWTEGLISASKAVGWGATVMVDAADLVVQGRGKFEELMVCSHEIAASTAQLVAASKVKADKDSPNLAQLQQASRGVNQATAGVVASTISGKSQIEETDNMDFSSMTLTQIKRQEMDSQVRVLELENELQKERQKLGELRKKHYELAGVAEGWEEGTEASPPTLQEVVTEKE
The experiment in a line: co-IP; lysates of human RA FLS cell lines cultured in serum-free media, media with FBS or media with PDGF 100 ng/mL for 24 h; immunoprecipitation with anti-HIP1 antibody, Western blot with protein-specific antibodies.

Consider “TRIO and F-actin binding protein (human) (from UniProt Q9H2D6 1-2365)”, for which the binding result is “binds”.

B1: 14-3-3 protein eta (human) (protein, UniProt Q04917 1-246)
chain: MGDREQLLQRARLAEQAERYDDMASAMKAVTELNEPLSNEDRNLLSVAYKNVVGARRSSWRVISSIEQKTMADGNEKKLEKVKAYREKIEKELETVCNDVLSLLDKFLIKNCNDFQYESKVFYLKMKGDYYRYLAEVASGEKKNSVVEASEAAYKEAFEISKEQMQPTHPIRLGLALNFSVFYYEIQNAPEQACLLAKQAFDDAIAELDTLNEDSYKDSTLIMQLLRDNLTLWTSDQQDEEAGEGN
B1: the binding entry was “binds”.

B2: Kinesin-like protein KIF1C (human) (protein, UniProt O43896 1-1103)
chain: MAGASVKVAVRVRPFNARETSQDAKCVVSMQGNTTSIINPKQSKDAPKSFTFDYSYWSHTSTEDPQFASQQQVYRDIGEEMLLHAFEGYNVCIFAYGQTGAGKSYTMMGRQEPGQQGIVPQLCEDLFSRVSENQSAQLSYSVEVSYMEIYCERVRDLLNPKSRGSLRVREHPILGPYVQDLSKLAVTSYADIADLMDCGNKARTVAATNMNETSSRSHAVFTIVFTQRCHDQLTGLDSEKVSKISLVDLAGSERADSSGARGMRLKEGANINKSLTTLGKVISALADMQSKKRKSDFIPYRDSVLTWLLKENLGGNSRTAMIAALSPADINYEETLSTLRYADRTKQIRCNAIINEDPNARLIRELQEEVARLRELLMAQGLSASALEGLKTEEGSVRGALPAVSSPPAPVSPSSPTTHNGELEPSFSPNTESQIGPEEAMERLQETEKIIAELNETWEEKLRKTEALRMEREALLAEMGVAVREDGGTVGVFSPKKTPHLVNLNEDPLMSECLLYHIKDGVTRVGQVDMDIKLTGQFIREQHCLFRSIPQPDGEVVVTLEPCEGAETYVNGKLVTEPLVLKSGNRIVMGKNHVFRFNHPEQARLERERGVPPPPGPPSEPVDWNFAQKELLEQQGIDIKLEMEKRLQDLENQYRKEKEEADLLLEQQRLYADSDSGDDSDKRSCEESWRLISSLREQLPPTTVQTIVKRCGLPSSGKRRAPRRVYQIPQRRRLQGKDPRWATMADLKMQAVKEICYEVALADFRHGRAEIEALAALKMRELCRTYGKPDGPGDAWRAVARDVWDTVGEEEGGGAGSGGGSEEGARGAEVEDLRAHIDKLTGILQEVKLQNSSKDRELQALRDRMLRMERVIPLAQDHEDENEEGGEVPWAPPEGSEAAEEAAPSDRMPSARPPSPPLSSWERVSRLMEEDPAFRRGRLRWLKQEQLRLQGLQGSGGRGGGLRRPPARFVPPHDCKLRFPFKSNPQHRESWPGMGSGEAPTPLQPPEEVTPHPATPARRPPSPRRSHHPRRNSLDGGGRSRGAGSAQPEPQHFQPKKHNSYPQPPQPYPAQRPPGPRYPPYTTPPRMRRQRSAPDLKESGAAV
Regarding B2, the binding result is recorded as “binds”.

Values taken from publication PMC11079228.
